Assay results from paper doi:10.1101/2025.11.10.687702.
No constants are given. Whether binding was seen depends on the method and setting. Sequences can lack the tags named with a protein.

Sequences of proteins named here, by UniProt entry; tags and fusion partners are left off. A change or cut given only in a name is not applied to a line headed by its entry.
UniProt Q709C8: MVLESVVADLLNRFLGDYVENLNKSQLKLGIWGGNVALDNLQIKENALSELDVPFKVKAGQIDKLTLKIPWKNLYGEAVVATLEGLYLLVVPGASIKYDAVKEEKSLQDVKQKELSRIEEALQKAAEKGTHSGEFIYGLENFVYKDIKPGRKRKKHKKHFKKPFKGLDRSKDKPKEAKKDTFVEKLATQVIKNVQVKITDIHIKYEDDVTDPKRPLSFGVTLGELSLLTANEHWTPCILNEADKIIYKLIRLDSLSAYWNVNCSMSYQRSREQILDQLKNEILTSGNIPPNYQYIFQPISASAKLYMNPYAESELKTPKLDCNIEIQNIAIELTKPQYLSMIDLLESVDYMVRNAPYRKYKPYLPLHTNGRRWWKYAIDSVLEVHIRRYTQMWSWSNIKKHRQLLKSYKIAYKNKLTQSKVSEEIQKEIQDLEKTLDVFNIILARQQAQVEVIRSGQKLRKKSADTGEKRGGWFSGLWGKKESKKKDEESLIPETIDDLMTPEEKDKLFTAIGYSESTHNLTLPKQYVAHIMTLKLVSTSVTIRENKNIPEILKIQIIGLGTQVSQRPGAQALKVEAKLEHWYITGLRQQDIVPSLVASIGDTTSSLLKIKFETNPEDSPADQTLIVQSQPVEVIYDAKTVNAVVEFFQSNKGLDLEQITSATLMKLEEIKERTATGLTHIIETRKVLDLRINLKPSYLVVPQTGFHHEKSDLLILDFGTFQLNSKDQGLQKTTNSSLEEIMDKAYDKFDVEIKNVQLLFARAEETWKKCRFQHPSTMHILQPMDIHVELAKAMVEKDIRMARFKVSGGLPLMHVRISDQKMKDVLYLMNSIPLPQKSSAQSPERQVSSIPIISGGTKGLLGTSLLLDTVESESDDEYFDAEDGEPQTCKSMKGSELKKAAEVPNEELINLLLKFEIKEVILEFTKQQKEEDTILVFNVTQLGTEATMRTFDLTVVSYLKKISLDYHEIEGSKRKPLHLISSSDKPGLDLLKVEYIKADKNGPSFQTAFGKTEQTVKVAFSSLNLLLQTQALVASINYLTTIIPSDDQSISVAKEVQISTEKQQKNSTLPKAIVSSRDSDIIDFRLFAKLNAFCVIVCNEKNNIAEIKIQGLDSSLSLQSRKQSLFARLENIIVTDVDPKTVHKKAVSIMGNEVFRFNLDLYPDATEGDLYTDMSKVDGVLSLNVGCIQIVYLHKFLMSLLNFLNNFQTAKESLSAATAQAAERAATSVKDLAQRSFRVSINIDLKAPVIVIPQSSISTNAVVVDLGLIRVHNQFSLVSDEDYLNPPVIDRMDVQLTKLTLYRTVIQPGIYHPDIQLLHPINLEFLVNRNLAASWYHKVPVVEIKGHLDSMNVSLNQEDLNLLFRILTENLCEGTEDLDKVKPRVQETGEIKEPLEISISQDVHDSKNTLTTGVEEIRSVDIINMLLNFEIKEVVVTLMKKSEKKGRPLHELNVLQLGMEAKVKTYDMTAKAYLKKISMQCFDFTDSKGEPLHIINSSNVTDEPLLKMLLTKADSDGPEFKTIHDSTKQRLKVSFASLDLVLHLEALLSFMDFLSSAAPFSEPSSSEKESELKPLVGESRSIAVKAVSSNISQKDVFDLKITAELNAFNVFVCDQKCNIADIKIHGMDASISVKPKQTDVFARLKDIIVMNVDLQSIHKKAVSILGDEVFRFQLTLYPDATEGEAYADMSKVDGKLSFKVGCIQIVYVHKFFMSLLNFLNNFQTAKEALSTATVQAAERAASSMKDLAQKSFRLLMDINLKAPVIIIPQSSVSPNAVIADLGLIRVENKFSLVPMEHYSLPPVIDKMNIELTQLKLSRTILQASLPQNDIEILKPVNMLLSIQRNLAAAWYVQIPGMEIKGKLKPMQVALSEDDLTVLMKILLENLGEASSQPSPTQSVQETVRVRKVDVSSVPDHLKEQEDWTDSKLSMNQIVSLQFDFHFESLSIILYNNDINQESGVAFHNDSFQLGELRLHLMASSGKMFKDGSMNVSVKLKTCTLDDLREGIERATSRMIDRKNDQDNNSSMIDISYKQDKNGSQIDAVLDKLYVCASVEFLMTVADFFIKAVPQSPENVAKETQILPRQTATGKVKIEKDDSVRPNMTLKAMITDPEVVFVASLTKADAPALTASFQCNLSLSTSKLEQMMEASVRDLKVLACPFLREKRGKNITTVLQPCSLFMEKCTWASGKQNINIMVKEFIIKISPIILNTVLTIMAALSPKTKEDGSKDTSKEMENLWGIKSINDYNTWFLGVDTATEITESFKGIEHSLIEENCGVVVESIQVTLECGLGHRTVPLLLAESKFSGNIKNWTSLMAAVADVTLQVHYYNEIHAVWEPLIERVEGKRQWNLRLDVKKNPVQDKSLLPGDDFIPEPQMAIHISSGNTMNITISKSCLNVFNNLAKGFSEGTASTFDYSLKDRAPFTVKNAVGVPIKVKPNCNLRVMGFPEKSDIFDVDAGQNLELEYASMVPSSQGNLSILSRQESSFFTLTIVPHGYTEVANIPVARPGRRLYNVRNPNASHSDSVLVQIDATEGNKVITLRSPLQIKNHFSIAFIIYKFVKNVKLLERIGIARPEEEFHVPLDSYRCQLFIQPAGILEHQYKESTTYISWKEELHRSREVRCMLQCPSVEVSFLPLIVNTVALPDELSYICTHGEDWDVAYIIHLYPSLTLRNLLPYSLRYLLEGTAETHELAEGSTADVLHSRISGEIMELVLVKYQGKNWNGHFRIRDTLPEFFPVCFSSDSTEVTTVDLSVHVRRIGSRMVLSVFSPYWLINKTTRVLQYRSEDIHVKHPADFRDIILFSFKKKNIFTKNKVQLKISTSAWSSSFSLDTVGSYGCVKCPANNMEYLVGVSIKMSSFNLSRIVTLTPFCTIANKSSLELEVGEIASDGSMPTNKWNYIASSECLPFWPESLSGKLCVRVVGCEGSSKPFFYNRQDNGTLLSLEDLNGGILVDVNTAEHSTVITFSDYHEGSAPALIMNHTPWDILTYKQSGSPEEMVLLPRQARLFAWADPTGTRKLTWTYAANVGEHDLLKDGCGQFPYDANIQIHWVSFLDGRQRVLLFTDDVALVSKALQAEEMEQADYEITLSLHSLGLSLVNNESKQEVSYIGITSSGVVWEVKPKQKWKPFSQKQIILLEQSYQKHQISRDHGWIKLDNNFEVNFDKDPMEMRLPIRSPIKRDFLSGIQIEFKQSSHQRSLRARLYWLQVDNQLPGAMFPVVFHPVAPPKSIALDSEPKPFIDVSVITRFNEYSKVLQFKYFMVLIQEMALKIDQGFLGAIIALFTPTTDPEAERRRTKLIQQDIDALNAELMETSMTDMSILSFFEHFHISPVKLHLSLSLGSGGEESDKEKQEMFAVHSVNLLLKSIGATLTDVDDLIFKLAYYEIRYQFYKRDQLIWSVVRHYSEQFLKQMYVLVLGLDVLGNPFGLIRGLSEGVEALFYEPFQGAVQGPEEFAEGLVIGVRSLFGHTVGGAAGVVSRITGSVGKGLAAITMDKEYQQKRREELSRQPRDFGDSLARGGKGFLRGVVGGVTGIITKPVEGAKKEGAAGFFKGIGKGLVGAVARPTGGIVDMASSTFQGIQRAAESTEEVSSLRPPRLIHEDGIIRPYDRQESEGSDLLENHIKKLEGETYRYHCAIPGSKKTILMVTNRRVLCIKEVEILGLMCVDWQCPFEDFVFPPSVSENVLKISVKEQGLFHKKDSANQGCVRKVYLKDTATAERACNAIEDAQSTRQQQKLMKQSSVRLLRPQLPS

Molecular target: T1, 6xHis-ATG7 (UniProt O95352)
T1 sequence: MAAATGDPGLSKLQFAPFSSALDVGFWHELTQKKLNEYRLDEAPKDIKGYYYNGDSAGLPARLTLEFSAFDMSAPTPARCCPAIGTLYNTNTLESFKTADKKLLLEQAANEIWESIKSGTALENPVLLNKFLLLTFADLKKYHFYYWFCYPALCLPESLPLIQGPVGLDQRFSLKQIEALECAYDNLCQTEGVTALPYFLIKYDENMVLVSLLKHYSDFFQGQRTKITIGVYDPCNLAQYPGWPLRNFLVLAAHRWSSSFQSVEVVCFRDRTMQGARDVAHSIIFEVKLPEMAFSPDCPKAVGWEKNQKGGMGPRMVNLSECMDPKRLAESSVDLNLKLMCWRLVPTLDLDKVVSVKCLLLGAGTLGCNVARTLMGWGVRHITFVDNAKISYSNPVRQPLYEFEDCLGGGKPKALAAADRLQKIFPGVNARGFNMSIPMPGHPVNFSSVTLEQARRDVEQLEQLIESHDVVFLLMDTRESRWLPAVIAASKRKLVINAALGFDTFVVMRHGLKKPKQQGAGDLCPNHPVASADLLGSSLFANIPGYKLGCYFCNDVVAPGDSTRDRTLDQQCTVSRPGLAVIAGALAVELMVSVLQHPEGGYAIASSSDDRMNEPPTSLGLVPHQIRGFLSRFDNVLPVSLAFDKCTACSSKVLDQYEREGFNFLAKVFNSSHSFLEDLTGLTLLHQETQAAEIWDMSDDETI
Assay: liposome flotation; purified VPS13C construct with SUVs (84.8% POPC, 10% POPE, 5% DGS-NTA, 0.2% Rhodamine-PE) to which His-tagged Rab7A(QL) or ATG7 was tethered; 1 mM GTP, 2 mM Mg2+, room temperature 20 min; OptiPrep gradient, top fraction on SDS-PAGE; both purified

binding: no binding
Substance: VPS13C lacking the amphipathic helices of the ATG2_C motif, C-terminal 3xFLAG (from UniProt Q709C8)
